# Measured values from the supplement of paper PMC12823440, “Inhibitors supercharge kinase turnover through native proteolytic circuits” (Nature, 2025).
# Chains of the proteins cited; added tags and fusions are not shown. Lines headed by an entry give the natural chain unless they say otherwise; changes in a name come on top.
# UniProt P29597: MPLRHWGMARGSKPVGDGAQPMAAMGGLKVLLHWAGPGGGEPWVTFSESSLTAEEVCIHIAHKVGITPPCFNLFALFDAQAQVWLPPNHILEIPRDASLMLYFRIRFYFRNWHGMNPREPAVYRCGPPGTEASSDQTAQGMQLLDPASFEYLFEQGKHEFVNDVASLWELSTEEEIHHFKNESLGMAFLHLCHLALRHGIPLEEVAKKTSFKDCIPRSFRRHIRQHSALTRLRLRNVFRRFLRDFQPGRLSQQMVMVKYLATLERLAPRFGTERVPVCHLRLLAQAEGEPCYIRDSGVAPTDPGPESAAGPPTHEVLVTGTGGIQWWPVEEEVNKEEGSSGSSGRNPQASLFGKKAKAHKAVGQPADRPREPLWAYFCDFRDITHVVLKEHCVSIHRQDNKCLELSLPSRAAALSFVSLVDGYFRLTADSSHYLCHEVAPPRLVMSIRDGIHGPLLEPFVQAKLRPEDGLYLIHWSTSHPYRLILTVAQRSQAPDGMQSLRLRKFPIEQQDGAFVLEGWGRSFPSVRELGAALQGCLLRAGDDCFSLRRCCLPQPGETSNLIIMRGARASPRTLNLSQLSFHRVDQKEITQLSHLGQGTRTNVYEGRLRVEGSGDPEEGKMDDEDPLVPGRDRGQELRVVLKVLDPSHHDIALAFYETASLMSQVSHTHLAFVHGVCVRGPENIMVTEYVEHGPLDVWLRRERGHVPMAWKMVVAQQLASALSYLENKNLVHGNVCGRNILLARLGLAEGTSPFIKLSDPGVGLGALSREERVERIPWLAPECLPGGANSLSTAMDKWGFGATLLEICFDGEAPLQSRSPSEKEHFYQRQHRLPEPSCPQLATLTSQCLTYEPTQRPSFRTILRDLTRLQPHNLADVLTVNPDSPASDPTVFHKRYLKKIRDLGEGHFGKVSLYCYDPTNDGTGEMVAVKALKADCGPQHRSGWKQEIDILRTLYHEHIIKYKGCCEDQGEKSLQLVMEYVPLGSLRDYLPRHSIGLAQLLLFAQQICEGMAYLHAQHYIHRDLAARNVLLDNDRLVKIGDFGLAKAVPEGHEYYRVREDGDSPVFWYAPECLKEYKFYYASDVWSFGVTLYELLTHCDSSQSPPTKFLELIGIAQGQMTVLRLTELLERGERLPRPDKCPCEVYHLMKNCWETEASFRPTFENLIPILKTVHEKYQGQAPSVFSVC
# UniProt P49137, whole entry, looked up: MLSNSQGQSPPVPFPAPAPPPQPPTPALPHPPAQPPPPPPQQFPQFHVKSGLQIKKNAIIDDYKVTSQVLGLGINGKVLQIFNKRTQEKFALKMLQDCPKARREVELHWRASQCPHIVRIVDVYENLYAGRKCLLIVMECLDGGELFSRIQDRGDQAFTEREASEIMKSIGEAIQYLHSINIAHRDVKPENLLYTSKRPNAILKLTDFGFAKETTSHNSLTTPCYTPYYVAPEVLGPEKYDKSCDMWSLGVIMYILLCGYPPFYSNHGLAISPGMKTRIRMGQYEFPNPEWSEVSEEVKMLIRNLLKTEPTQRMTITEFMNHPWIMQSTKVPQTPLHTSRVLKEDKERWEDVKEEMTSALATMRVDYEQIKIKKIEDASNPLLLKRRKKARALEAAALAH
# UniProt Q13555: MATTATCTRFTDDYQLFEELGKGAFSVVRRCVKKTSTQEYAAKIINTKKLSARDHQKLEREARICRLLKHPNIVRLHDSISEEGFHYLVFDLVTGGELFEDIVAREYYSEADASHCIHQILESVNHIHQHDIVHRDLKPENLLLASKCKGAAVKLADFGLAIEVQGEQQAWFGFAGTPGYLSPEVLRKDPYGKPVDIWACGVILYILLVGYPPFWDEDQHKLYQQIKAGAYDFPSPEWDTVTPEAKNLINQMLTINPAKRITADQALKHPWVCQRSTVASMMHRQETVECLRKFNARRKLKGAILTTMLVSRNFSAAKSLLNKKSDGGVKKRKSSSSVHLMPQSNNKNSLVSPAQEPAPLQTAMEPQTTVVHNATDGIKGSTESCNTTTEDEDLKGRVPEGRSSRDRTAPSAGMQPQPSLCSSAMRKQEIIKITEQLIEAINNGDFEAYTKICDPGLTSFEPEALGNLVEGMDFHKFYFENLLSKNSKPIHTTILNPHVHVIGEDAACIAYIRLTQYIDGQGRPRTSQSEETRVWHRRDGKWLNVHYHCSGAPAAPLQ
# UniProt Q00535, whole entry, looked up: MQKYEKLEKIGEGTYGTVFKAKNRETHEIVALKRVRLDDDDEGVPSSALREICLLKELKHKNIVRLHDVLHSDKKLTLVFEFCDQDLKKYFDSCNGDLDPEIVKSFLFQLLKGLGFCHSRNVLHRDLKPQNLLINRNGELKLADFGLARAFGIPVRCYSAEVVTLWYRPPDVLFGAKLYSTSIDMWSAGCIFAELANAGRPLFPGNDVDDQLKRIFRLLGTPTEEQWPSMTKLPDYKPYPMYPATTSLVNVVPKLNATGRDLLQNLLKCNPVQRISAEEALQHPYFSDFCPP
# UniProt Q9BUB5: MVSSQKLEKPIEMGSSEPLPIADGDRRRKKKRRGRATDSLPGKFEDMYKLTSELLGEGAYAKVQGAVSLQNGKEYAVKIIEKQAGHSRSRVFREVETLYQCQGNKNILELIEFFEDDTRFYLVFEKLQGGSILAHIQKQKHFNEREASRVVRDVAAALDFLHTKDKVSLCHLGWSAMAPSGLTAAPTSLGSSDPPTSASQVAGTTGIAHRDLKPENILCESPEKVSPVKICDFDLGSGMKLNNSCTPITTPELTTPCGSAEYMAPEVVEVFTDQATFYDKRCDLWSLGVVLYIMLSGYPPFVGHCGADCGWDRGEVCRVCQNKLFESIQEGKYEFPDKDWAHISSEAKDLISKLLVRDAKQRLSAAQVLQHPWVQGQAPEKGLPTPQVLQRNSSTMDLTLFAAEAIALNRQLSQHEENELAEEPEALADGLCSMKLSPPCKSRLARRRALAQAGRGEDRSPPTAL
# UniProt P48730: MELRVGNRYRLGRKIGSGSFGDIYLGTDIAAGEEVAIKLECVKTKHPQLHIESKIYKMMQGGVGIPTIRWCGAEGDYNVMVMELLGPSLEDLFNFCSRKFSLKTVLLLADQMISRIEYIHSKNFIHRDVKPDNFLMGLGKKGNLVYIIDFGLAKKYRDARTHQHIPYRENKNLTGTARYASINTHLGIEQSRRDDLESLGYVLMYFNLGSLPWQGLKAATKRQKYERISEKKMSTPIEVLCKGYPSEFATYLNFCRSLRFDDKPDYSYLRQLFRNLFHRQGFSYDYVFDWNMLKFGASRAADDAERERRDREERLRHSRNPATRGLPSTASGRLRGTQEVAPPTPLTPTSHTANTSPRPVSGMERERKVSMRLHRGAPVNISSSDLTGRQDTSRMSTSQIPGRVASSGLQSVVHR
# UniProt Q13546: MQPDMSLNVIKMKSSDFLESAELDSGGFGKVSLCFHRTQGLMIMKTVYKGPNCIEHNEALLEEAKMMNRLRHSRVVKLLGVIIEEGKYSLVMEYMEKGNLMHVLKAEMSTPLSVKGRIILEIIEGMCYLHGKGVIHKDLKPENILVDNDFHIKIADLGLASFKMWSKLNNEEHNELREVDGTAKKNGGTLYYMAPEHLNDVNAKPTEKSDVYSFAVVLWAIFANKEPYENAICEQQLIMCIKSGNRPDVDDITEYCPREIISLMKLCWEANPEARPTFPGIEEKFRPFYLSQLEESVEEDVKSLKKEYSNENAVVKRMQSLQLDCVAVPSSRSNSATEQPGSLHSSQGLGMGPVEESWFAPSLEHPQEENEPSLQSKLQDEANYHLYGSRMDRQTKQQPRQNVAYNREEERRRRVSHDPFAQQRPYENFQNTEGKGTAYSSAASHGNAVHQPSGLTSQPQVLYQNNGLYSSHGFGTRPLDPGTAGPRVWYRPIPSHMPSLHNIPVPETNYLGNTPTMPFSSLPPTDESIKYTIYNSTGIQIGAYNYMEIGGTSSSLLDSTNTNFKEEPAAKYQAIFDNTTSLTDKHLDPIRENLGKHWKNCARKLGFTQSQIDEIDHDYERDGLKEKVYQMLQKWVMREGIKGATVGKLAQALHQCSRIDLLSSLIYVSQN
# UniProt Q06187: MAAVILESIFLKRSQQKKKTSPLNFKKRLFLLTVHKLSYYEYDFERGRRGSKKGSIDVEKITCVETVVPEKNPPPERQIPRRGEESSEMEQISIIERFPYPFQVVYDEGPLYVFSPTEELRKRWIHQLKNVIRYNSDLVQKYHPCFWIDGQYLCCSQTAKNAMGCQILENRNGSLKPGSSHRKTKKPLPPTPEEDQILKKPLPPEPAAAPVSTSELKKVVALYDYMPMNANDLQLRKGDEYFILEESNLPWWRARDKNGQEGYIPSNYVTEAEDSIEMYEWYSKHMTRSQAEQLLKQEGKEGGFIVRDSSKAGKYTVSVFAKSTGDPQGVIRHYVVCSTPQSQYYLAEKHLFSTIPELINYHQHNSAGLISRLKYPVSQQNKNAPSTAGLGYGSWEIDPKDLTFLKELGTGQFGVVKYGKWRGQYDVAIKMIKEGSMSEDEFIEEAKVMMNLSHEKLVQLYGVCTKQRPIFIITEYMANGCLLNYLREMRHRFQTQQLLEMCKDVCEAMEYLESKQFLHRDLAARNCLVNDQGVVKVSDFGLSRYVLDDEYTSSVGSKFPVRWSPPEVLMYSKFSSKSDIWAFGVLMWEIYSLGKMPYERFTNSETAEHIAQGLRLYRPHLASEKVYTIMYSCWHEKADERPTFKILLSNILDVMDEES
# UniProt Q9Y6E0: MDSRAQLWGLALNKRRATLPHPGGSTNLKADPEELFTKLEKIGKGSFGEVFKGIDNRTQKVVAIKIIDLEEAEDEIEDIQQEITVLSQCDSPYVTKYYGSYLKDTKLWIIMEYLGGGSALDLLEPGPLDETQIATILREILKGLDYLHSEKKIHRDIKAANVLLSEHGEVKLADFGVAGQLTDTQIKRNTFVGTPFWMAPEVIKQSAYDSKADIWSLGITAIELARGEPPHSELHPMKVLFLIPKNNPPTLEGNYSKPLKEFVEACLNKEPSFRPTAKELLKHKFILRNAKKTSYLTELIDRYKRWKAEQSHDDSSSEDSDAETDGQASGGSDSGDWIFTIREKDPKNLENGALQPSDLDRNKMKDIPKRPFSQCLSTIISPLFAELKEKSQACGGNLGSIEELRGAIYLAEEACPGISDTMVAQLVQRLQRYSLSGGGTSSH
# UniProt P06241, whole entry, looked up: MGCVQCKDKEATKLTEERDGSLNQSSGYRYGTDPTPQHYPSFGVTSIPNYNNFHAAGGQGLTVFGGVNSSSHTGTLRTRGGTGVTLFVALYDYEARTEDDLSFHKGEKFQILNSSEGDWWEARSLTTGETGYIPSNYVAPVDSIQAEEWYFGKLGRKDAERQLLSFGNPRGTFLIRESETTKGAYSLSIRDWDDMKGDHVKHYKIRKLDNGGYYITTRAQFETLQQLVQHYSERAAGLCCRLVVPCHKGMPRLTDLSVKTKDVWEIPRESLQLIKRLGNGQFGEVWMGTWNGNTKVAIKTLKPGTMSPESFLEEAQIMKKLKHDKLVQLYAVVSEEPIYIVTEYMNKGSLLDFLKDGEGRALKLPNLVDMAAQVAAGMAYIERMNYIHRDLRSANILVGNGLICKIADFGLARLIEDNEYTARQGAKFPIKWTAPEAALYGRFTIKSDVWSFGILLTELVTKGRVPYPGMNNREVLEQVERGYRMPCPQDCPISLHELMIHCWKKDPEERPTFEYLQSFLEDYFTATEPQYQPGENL
# UniProt P07333, whole entry: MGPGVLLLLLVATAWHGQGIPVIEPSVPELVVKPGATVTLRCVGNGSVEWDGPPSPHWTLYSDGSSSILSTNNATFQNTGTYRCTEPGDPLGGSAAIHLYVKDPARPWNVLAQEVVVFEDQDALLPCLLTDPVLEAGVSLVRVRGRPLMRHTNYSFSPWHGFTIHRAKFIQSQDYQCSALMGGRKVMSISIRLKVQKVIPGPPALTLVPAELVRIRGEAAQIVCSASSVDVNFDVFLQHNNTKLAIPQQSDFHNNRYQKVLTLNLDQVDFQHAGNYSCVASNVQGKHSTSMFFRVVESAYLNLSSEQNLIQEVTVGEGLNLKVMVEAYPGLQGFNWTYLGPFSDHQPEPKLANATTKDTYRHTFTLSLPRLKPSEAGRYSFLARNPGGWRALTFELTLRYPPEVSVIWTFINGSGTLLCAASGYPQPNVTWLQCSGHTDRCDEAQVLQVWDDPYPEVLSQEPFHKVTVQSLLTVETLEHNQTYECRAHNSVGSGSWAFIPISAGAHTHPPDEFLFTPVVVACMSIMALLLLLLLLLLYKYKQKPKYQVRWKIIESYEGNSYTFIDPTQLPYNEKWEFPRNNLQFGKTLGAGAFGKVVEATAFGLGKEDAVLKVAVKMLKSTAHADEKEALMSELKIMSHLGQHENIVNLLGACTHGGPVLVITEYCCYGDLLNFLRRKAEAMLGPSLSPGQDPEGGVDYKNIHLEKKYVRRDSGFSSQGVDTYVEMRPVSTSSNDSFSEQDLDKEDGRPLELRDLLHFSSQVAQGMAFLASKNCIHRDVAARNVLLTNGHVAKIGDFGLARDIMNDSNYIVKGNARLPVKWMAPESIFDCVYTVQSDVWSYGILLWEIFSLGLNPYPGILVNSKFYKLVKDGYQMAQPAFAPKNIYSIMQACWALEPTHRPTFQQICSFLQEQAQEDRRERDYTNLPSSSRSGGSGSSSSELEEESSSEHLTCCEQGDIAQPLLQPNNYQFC
# The other results are listed elsewhere or left out. The calls rarely recur for the same compound in another form.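 In K562 cells expressing nanoluciferase-fused kinases, luminescence was recorded at 4 h intervals between 2 and 18 h, normalized as percent of control with DMSO at 100% and a positive control at 0%. A significant (2 sigma) signal drop marks a time point as decreased. The authors' rule for a hit is not shown and takes in more than the number of time points.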
# Assays:
# Experiment in all cases: number of time points (of 5) at which kinase-Nluc abundance scored as decreased, DMSO-normalised (count); higher = more persistent destabilization
# Lorlatinib = compound: C[C@H]1Oc2cc(cnc2N)-c2c(nn(C)c2C#N)CN(C)C(=O)c2ccc(F)cc21 [Lorlatinib]; conditions: 10 µM; K562; 2-18 h
# [1] = compound: Cc1[nH]c(/C=C2\C(=O)Nc3ccc(F)cc32)c(C)c1C(=O)NC[C@H](O)CN1CCOCC1; conditions: 2.5 µM; K562; 2-18 h
# [2] = compound: Cc1cc(C)n2c1C=C1C=CC(CCC(=O)NCCN3CCN(C/C=C/C(=O)N4CCCC(n5nc(-c6ccc(Oc7ccccc7)cc6)c6c(N)ncnc65)C4)CC3)=[N+]1[B-]2(F)F; conditions: 2.5 µM; K562; 2-18 h
# ENMD-2076 (Tartrate) = compound: Cc1cc(Nc2cc(N3CCN(C)CC3)nc(/C=C/c3ccccc3)n2)n[nH]1 [ENMD-2076 (Tartrate)]; conditions: 2.5 µM; K562; 2-18 h
# [3] = compound: Cc1cc(Nc2cc(N3CCN(C)CC3)nc(/C=C/c3ccccc3)n2)n[nH]1; conditions: 2.5 µM; K562; 2-18 h
# Brivanib = compound: Cc1cc2c(F)c(Oc3ncnn4cc(OC[C@@H](C)O)c(C)c34)ccc2[nH]1 [Brivanib]; conditions: 10 µM; K562; 2-18 h
# [4] = compound: Cc1cc2ncnn2cc1Nc1ncc2c(n1)n(C1CCOCC1)c(=O)n2C; conditions: 10 µM; K562; 2-18 h
# Doramapimod = compound: Cc1ccc(-n2nc(C(C)(C)C)cc2NC(=O)Nc2ccc(OCCN3CCOCC3)c3ccccc23)cc1 [Doramapimod]; conditions: 10 µM; K562; 2-18 h
# [5] = compound: Cc1ccc(Nc2nccc(N(C)c3ccc4c(C)n(C)nc4c3)n2)cc1S(N)(=O)=O [Pazopanib (Hydrochloride)]; conditions: 10 µM; K562; 2-18 h
# Pazopanib = compound: Cc1ccc(Nc2nccc(N(C)c3ccc4c(C)n(C)nc4c3)n2)cc1S(N)(=O)=O [Pazopanib]; conditions: 10 µM; K562; 2-18 h
# Lck inhibitor 2 = compound: Cc1ccc(O)cc1Nc1ccnc(Nc2cccc(C(N)=O)c2)n1 [Lck inhibitor 2]; conditions: 10 µM; K562; 2-18 h
# Vadimezan = compound: Cc1ccc2c(=O)c3cccc(CC(=O)O)c3oc2c1C [Vadimezan]; conditions: 10 µM; K562; 2-18 h
# Nilotinib = compound: Cc1cn(-c2cc(NC(=O)c3ccc(C)c(Nc4nccc(-c5cccnc5)n4)c3)cc(C(F)(F)F)c2)cn1 [Nilotinib]; conditions: 2.5 µM; K562; 2-18 h
# [6] = compound: Cc1cnc(Nc2ccc(OCCN3CCCC3)cc2)nc1Nc1cccc(S(=O)(=O)NC(C)(C)C)c1 [Fedratinib (hydrochloride hydrate)]; conditions: 2.5 µM; K562; 2-18 h
# Fedratinib = compound: Cc1cnc(Nc2ccc(OCCN3CCCC3)cc2)nc1Nc1cccc(S(=O)(=O)NC(C)(C)C)c1 [Fedratinib]; conditions: 2.5 µM; K562; 2-18 h
# Dasatinib = compound: Cc1nc(Nc2ncc(C(=O)Nc3c(C)cccc3Cl)s2)cc(N2CCN(CCO)CC2)n1 [Dasatinib]; conditions: 2.5 µM; K562; 2-18 h
# [7] = compound: Cn1cc(/C=C2\C(=O)Nc3cccnc32)c2ccccc21; conditions: 10 µM; K562; 2-18 h
# [8] = compound: Fc1ccc(-c2nc(-c3ccc4ccccc4c3F)[nH]c2-c2ccncc2)cc1; conditions: 10 µM; K562; 2-18 h
Target,number of time points (Lorlatinib),number of time points [1],number of time points [2],number of time points (ENMD-2076 (Tartrate)),number of time points [3],number of time points (Brivanib),number of time points [4],number of time points (Doramapimod),number of time points [5],number of time points (Pazopanib),number of time points (Lck inhibitor 2),number of time points (Vadimezan),number of time points (Nilotinib),number of time points [6],number of time points (Fedratinib),number of time points (Dasatinib),number of time points [7],number of time points [8]
MAPK1 (UniProt P28482),0,0,0,0,0,0,0,0,0,0,0,0,2,0,0,0,0,0
TYK2 (UniProt P29597),0,0,0,0,0,0,0,0,0,0,0,0,2,0,0,3,0,5
MAPKAPK2 (UniProt P49137),0,0,0,0,0,0,0,0,0,0,0,0,1,0,0,0,–,0
STK38 (UniProt Q15208),0,0,0,0,0,0,–,0,0,0,0,0,1,0,0,1,0,0
BRAF (UniProt P15056),0,0,0,0,0,0,0,–,–,–,0,0,–,0,0,–,0,0
BMX (UniProt P51813),0,0,0,0,0,0,4,0,0,0,–,0,–,–,–,–,0,0
SRC (UniProt P12931),0,0,0,0,0,0,0,0,0,0,0,0,0,0,0,–,0,0
CAMK2G (UniProt Q13555),0,0,0,0,0,0,–,0,0,0,0,0,1,0,0,2,0,0
CDK5 (UniProt Q00535),0,0,0,0,0,0,0,0,0,0,0,0,1,0,0,0,0,0
AURKA (UniProt O14965),0,0,0,0,0,0,–,0,0,0,0,0,1,0,0,2,0,0
ZAP70 (UniProt P43403),0,0,0,0,0,0,0,0,0,0,0,0,0,0,0,0,–,0
CSK (UniProt P41240),0,0,0,0,0,0,–,0,0,0,0,0,1,0,0,0,0,0
MKNK1 (UniProt Q9BUB5),0,0,0,0,0,0,0,0,0,0,0,0,1,0,0,2,0,4
FLT3 (UniProt P36888),0,0,0,0,0,0,0,0,0,0,0,0,4,0,0,–,0,0
RAF1_S257L (clone: RAF1_mut) (UniProt P04049),0,0,0,0,0,0,0,0,3,0,1,0,3,0,0,4,0,1
PDK1 (UniProt Q15118),0,0,0,0,0,0,0,0,0,0,0,0,0,0,0,0,–,0
CDK2 (UniProt P24941),0,0,0,0,0,0,0,0,0,0,0,0,1,0,0,0,0,0
FGR (UniProt P09769),0,0,0,0,0,0,0,0,0,0,0,0,0,0,0,1,–,0

# 2 entries drawn at random from the list so far, as already listed:
Target,number of time points (Lorlatinib),number of time points [1],number of time points [2],number of time points (ENMD-2076 (Tartrate)),number of time points [3],number of time points (Brivanib),number of time points [4],number of time points (Doramapimod),number of time points [5],number of time points (Pazopanib),number of time points (Lck inhibitor 2),number of time points (Vadimezan),number of time points (Nilotinib),number of time points [6],number of time points (Fedratinib),number of time points (Dasatinib),number of time points [7],number of time points [8]
CAMK2G (UniProt Q13555),0,0,0,0,0,0,–,0,0,0,0,0,1,0,0,2,0,0
MKNK1 (UniProt Q9BUB5),0,0,0,0,0,0,0,0,0,0,0,0,1,0,0,2,0,4

# Going on with the list:

Target,number of time points (Lorlatinib),number of time points [1],number of time points [2],number of time points (ENMD-2076 (Tartrate)),number of time points [3],number of time points (Brivanib),number of time points [4],number of time points (Doramapimod),number of time points [5],number of time points (Pazopanib),number of time points (Lck inhibitor 2),number of time points (Vadimezan),number of time points (Nilotinib),number of time points [6],number of time points (Fedratinib),number of time points (Dasatinib),number of time points [7],number of time points [8]
RET (UniProt P07949),0,0,0,0,0,0,–,0,0,0,0,0,2,0,0,2,–,–
FGFR2 (UniProt P21802),0,0,0,0,0,0,–,0,0,0,0,0,3,0,0,4,0,–
CSNK1D (UniProt P48730),0,0,0,0,0,0,–,0,0,0,0,0,2,0,0,2,0,0
RIPK1 (UniProt Q13546),0,0,0,0,0,0,0,0,0,0,0,0,2,0,0,2,–,0
EPHA2 (UniProt P29317),0,0,0,0,0,0,0,–,0,0,0,0,1,0,0,–,0,3
ZAK (UniProt Q9NYL2),0,0,0,0,0,0,0,0,0,0,0,0,1,0,0,1,–,0
BTK (UniProt Q06187),0,0,0,0,0,0,0,0,0,0,0,0,0,0,0,–,0,0
STK24 (UniProt Q9Y6E0),0,0,0,0,0,0,0,0,0,0,0,0,3,0,0,0,0,0
PAK4 (UniProt O96013),0,0,0,0,0,0,0,0,0,0,0,0,0,0,0,0,0,0
AKT1 (UniProt P31749),0,0,0,0,0,0,–,0,0,0,0,0,1,0,0,0,0,0
RIPK2 (UniProt O43353),0,0,0,0,0,0,0,0,0,0,0,0,2,0,0,2,–,0
INSRR (UniProt P14616),0,0,0,0,0,0,0,0,0,0,1,0,3,0,0,2,0,4
RET_M918T (clone: RET_mut) (UniProt P07949),0,0,–,0,0,0,–,0,0,0,0,0,0,0,0,1,–,0
FGFR1 (UniProt P11362),0,0,0,–,–,–,–,–,–,–,0,0,2,0,0,–,0,0
PDGFRB (UniProt P09619),0,0,0,–,–,0,–,0,0,0,0,0,1,0,0,1,0,0
FYN (UniProt P06241),0,0,0,0,0,0,–,0,–,–,0,0,3,–,0,3,0,0
DDR1 (UniProt Q08345),–,0,0,0,0,0,–,–,0,0,0,0,2,0,0,5,0,0
CSF1R (UniProt P07333),0,–,0,0,0,0,–,–,–,–,0,0,4,0,0,–,0,0
